According to PubChem BioAssay AID602189 (Broad Institute, 2012):
The shares of active, inactive and inconclusive entries below differ from those in the screen. Active and inactive are the calls of the source.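 The calls were made as follows: active = signal drop in every repeat run, with half-maximal concentration at most twice the top valid concentration; inconclusive = the separate test runs give conflicting calls; inactive = inactive in every test run.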

Experiment: C. albicans CaCi-17 growth inhibition, confirmation, clinical isolate, Alamar Blue, dry powder (AID 602189)
Conditions: Alamar Blue fluorescence, 48 h; at 26 µM (top of the series) unless noted
Outline: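 Assay system: fluconazole-resistant clinical isolate CaCi-17, whole fungal cells; medium: MOPS-buffered RPMI 1640 with uridine and glucose; times: 48 h at 37 °C, unshaken; technique: Alamar Blue fluorescence, 1:40 in PBS, read after 2 h; read-out: growth inhibition, shown by reduced Alamar Blue fluorescence; control set: amphotericin B at 10 µM as positive control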

| SMILES | activity change, negative = inhibition |
| --- | --- |
| COc1ccc(-c2nnc(NC(=O)c3ccc(S(=O)(=O)N4CCCc5ccccc54)cc3)o2)cc1 | inconclusive: 5.75% |
| NC(=O)c1cccc(C(=O)Nc2nc(-c3ccc4c(c3)CCCC4)cs2)c1 | inactive: 21.1% |
| Cc1cc(C)n(-c2nc3ccccc3c(=O)n2OCC#N)n1 | inconclusive: -98.4% |
| CCOC(=O)N1C(=O)C2(CCCCC2)N(c2ccc(C)cc2)C1=S | inactive: -10.2% |
| Oc1c(CN2CCN(c3ccccc3)CC2)cc(Cl)c2cccnc12 | inconclusive: -47.5% [at 28.5 µM] |
| Cc1ccc(C(=O)Nc2nc(-c3ccccn3)cs2)cc1 | inconclusive: -97.5% |
| C=CCNC(=S)N/N=C(\C)c1ccccn1 | inactive: -32.2% |
| CCCC(=O)NC(c1cccs1)c1cc(Cl)c2cccnc2c1O (stereo not given) | inconclusive: -67% |
| O=C(Nc1nc(-c2ccccn2)cs1)c1ccccc1 | inactive: 57.1% |
| O=C(Nc1nc(-c2ccccc2)cs1)c1ccc(Br)s1 | inactive: -6.92% |
